Common to all, as to experiment: two-hybrid; Matchmaker Gold Yeast Two-Hybrid System, Y2HGold strain, MEL1 (alpha-galactosidase) reporter quantified colorimetrically in liquid culture; pVHL constructs in pGBKT7 as baits, p14ARF or pVHL constructs in pGADT7 as preys; activity related to the expression level of the fusion proteins
Assay [1] addresses pVHL30 N-terminal tail (pVHL-N), residues 1 to 53 (human) (UniProt P40337).
The target in assay [2] is von Hippel-Lindau tumor suppressor protein, isoform pVHL30 (human) (UniProt P40337).
The target of assay [3] is von Hippel-Lindau tumor suppressor protein, isoform pVHL19 (human) (UniProt P40337).

Chains of the proteins cited; added tags and fusions are not shown. Lines headed by an entry give the natural chain unless they say otherwise; changes in a name come on top. Residues count along the entry.
UniProt P40337: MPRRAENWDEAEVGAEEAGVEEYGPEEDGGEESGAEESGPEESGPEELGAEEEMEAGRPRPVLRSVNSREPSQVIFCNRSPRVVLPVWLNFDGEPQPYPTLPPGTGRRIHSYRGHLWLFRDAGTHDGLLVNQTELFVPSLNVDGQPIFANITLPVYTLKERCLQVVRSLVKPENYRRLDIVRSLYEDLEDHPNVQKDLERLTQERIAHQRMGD
pVHL30 N-terminal tail (pVHL-N), residues 1 to 53: residues 1-53 of P40337
von Hippel-Lindau tumor suppressor protein, isoform pVHL19: residues 54-213 of P40337

For two substances, binding results are on record in publication PMC4515828.

These are yes or no findings as the source states them, for the method shown. Some entries that bind do so weakly or less than the wild type.

As for p14ARF (from UniProt Q8N726-1 1-132), the binding entry in assay [1] is on record as “binds”; in assay [2] it was “binds”; in assay [3] it was “no binding”.

Consider “von Hippel-Lindau tumor suppressor protein, isoform pVHL19 (from UniProt P40337-1 54-213)”, for which the binding result in assay [1] is recorded as “binds”; in assay [2], “no binding”; in assay [3], “binds”.
